The target of assay [1] is soluble 6xHis-tagged B7-H4 extracellular portion (V1) (mouse) (UniProt Q7TSP5). In words: BS3 cross-linking, SDS-PAGE and western blot (self-association). Background: A western blot detects proteins with antibodies after separation by electrophoresis.
Assay [2] deals with PNGase F-treated V1 (mouse) (UniProt Q7TSP5). The assay is described as above.
The target in assay [3] is soluble 6xHis-tagged B7-H4 IgV-like domain (IgV) (mouse) (UniProt Q7TSP5). As to the kind of experiment: BS3 cross-linking and western blot (self-association).
Assay [4] has as its target soluble 6xHis-tagged B7-H4 IgC-like domain (IgC) (mouse) (UniProt Q7TSP5). The assay is described as above.

No constants are given. Whether binding was seen depends on the method and setting. Some results given as binding are weak or reduced against the parent protein; the word gives no strength. For some of these results: Where a sequence is shown, tags or fusion partners need not be part of it.

B1: soluble 6xHis-tagged B7-H4 extracellular portion (V1) (ligand, mouse)
chain: LIIGFGISGKHFITVTTFTSAGNIGEDGTLSCTFEPDIKLNGIVIQWLKEGIKGLVHEFKEGKDDLSQQHEMFRGRTAVFADQVVVGNASLRLKNVQLTDAGTYTCYIRTSKGKGNANLEYKTGAFSMPEINVDYNASSESLRCEAPRWFPQPTVAWASQVDQGANFSEVSNTSFELNSENVTMKVVSVLYNVTINNTYSCMIENDIAKATGDIKVTDSEVKRRSQLQLLNSGHHHHHH
modifications: N-glycosylated (N112, N160, N190, N196, N205, N216, N220)
With B1, the binding result in assay [1] is given as “binds”.

B2: PNGase F-treated V1 (ligand, mouse)
chain: B1 chain
modifications: N-glycans removed by PNGase F treatment
For B2, in assay [2], the binding entry is on record as “binds”.

B3: soluble 6xHis-tagged B7-H4 IgV-like domain (IgV) (ligand, mouse)
chain: LIIGFGISGKHFITVTTFTSAGNIGEDGTLSCTFEPDIKLNGIVIQWLKEGIKGLVHEFKEGKDDLSQQHEMFRGRTAVFADQVVVGNASLRLKNVQLTDAGTYTCYIRTSKGKGNANLEYKTGAFHHHHHH
As for B3, the binding result in assay [3] is reported as “binds”.

B4: soluble 6xHis-tagged B7-H4 IgC-like domain (IgC) (ligand, mouse)
chain: SMPEINVDYNASSESLRCEAPRWFPQPTVAWASQVDQGANFSEVSNTSFELNSENVTMKVVSVLYNVTINNTYSCMIENDIAKATGDIKVTDSEVKRRSQLQLLNSGHHHHHH
Regarding B4, in assay [4], the binding entry is given as “binds”.

The record behind these values is US11672873.
